# PubChem BioAssay AID1508600 (Functional Genomics Laboratory (NCATS/FGL), 2020)
# Out of some 53,000 sequences screened, about 3,700 (7%) were called active.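 How the source made its calls: active means gene knockdowns whose robust z-score for IL-1 alpha signal is at least 2 or at most -2, so actives lie on both sides; inactive means the rest.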 The list shows a part of the results.
# Assay: Components of the Cytosolic LPS Sensing Pathway: Gene Identification via Genome-wide siRNA Screen;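 further: robust z of the log signal after scaling to non-targeting control siRNA wells of the plate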
# Conditions: RAW264.7 macrophages, IL-1a HTRF, actives lie on both sides, screened at 100 nM (by protocol), cells primed 5 h with Pam3CSK4 first
# Outline: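 Mouse macrophage line RAW264.7 is transfected with siRNA (100 nM final), grown 48h, primed with TLR ligand Pam3CSK4 5 h and given intracellular LipidA 24 h. IL-1a in supernatant is read by HTRF and viability by luminescence.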
row,Sequence,z-score
1,CGAUUACUACAUUACAUCATT against Efnb1,inactive: 1.2
2,GGUGAUCAGUGCCUACAGATT against Ppp1r37,inactive: 0.244
3,CAUCUUUCAUCAAAUAACUTT against Krtap31-2,active: 2.49
4,CCGUCGUACUUGUUCUCCUTT against Otog,inactive: -0.387
5,GCCAUUCAAUGAUACAAUGTT against Adamts19,inactive: 0.684
6,GGUGUUUACAACCUCACAATT against Pecr,inactive: 0.105
7,GGGUCUUGUGAUCUCAAUUTT against Cyp2a5,inactive: -0.785
8,GGUGUCAAGUGGAUUAUCCTT against Slc12a8,inactive: -1.5
9,GGAAUGUUAACAAAGAGCATT against Sgcb,inactive: 0.8
10,GGGACACUCCACCUUUCAUTT against Notch4,inactive: -0.637
11,GCACCGGUGAAAAAGAAGATT against Pinx1,inactive: -0.607
12,GGAAUCGUUCCGUAGUGACTT against Olfr959,inactive: -0.0954
13,GGAGAAAGAAGCUAGUGAGTT against Gm6787,active: -2.77
14,GGGUUCCUAUGGCAAUGGGTT against Adprhl2,inactive: -1.18
15,CGAACUGUCAUACAGAUUCTT against Gadd45b,inactive: 0.475
16,GCAUGUGUCAAGAUGUCUGTT against Tec,inactive: 1.36
17,CCACAUGCCAAAAUAAUACTT against Oxr1,inactive: -0.771
18,GGUGAGAAGGUGCUAGUGUTT against Ugt1a5,inactive: 0.679
19,GGAUCAGUUCAACGGACAGTT against Oas1d,inactive: 0.741
20,GGAUUUGUUGACAAGAACATT against Myo1b,inactive: 1.26
21,GGCUGGUUGGAAGGAAAAUTT against Ints6l,active: 2.1
22,GGAAAUCUUUGAGAACUAUTT against Tpr,inactive: -0.0193

row,Sequence,z-score
1,GGGAUCAUUGCUGUCCUCUTT against Adora2b,inactive: -1.33
2,GGCCUACGAACAGGUCAUGTT against Foxa2,inactive: 0.0835
3,GGGCCUCUAUCAACACUGUTT against Tomm40l,inactive: 0.951
4,GCAAGAACUGAAUCUAGUGTT against Tepsin,inactive: 0.785
5,GCGACACAGAUUCAGAGAATT against Tmem178b,inactive: 0.33
6,CCAUUCUUGCCUUUGUGCUTT against Cep55,inactive: -1.63
7,GGGCUCAUGAACUAAAAUUTT against C2cd2,inactive: 0.821
8,GGCUGCAUGAUUUAUAGAGTT against Il18,inactive: 1
9,GGCACGUAUGUGGUAGACATT against Zdhhc7,inactive: -1.08
10,CGUGCAACAAGACAUCUAATT against Wnt4,inactive: -0.452
11,GGAAUUUGGAAUGGCUACUTT against Hmcn2,inactive: -0.126
12,GGAGAUCCUAGAAACCAUCTT against Pex6,inactive: 1.71
13,GCCUUCAAAUGAAGGAAGGTT against Olfr699,inactive: 0.0289
14,GCCUGCAUUAGGAACCAAATT against Galnt9,inactive: 0.222
15,GGACCAAGUGGAAGAAGCATT against Nkx1-2,active: -2.02
16,GGACUAGCAUUCAUGUUCCTT against Zfy2,inactive: 0.618
17,GGUCUGAAAAAAGUAUCUUTT against Zfp943,inactive: -1.07
18,GGCGGAUUCAACAGACCUCTT against Snrnp27,inactive: -0.01
19,GCAACGGACCUUUAAAAAATT against Mex3d,inactive: -0.681
20,GCUUGUGAGUCUUUUCCUATT against Nfxl1,inactive: 0.571
21,GCCCUCAUCAGAAGAAACUTT against Cox7b2,inactive: 0.864
22,CCAUAGCACUAAAUCAGAUTT against Nipbl,inactive: -1.3

row,Sequence,z-score
1,GGUCCAGAUUUACAACCCATT against St3gal2,inactive: -0.81
2,UUGGGAUGGGUCAUGCCUUTT against Gm10319,inactive: 0.484
3,CGUUGCUGGUCCAACAGAATT against Vtcn1,inactive: -0.252
4,GCUAUCACAAUAAAGGAUATT against Syt14,inactive: -0.2
5,GGAACUUUUCCUGGCCUCGTT against 9530080O11Rik,inactive: 1.79
6,GGACGUGGUUGUUACCUCCTT against Stfa2l1,inactive: -0.226
7,GGAAGUAUCGAGAUUCAUGTT against Pitpnm3,inactive: 0.0165
8,GGCAUUGCUUUGCUGGUCUTT against Atp5md,inactive: 0.97
9,GGAAGUGAGAGUUAAGGCCTT against Rhov,inactive: 0.748
10,CAGUCGAAUUUCAGUCACATT against Olfr417,inactive: -0.111
11,GGCUGAACUCAAAAAGACGTT against Hand1,inactive: 1.69
12,AGAUUUUGGGAAUAUAGUGTT against Klra16,inactive: 0.098
13,CGAACUGGCUGAGAUCAUCTT against Mrps17,inactive: -1.56
14,GGGAAGAAGAUGGAAUUUATT against Smoc1,inactive: 1.22
15,GGCCUACGAAGUGCAAAGATT against Sipa1l3,inactive: -0.667
16,GGAGGAGAUGAUGAAUUUUTT against Etf1,inactive: 0.965
17,GGCACACUUAUCAAAUAAATT against Rrm1,inactive: -0.281
18,CCAGAACGAAUCCCACUGUTT against Cmtm8,inactive: -0.409
19,GGAUGAUCCAGACUAACUUTT against Abcb6,inactive: -0.655
20,GCGGCUAACUGAAUACAUGTT against Osbpl1a,inactive: 0.975
21,GGACACACUACCGAACAUUTT against Gfral,inactive: -0.18
22,CGAUAAAAUCAUUGUGGGCTT against Bbs9,inactive: -1.18

# Looked up above:
# Entry for GGUGAGAAGGUGCUAGUGUTT against Ugt1a5 under z-score: inactive: 0.679
# Entry for GGGUCUUGUGAUCUCAAUUTT against Cyp2a5 under z-score: inactive: -0.785

# More results:

row,Sequence,z-score
1,GCAUCGAUCUUUAUACACUTT against Arhgef12,inactive: 1.13
2,GCCUUGGCCGAGGUUAAUUTT against Rtl5,inactive: -0.329
3,CCUAUCUUUACCACAUAGATT against Vps35l,inactive: -1.59
4,GGAAGUCUCAUCGUAAUUCTT against Bud13,inactive: -1.71
5,GGACUGUCUGAUGUCAAAGTT against Synpr,inactive: 0.619
6,CCAAGAUCACAUACCGUGATT against Acss2,inactive: -1.12
7,GGAGUUCUUUCUGAGGUGUTT against Uqcc1,inactive: 0.864
8,GGAACUUGGGCAUUCCAGATT against Adck2,inactive: -0.676
9,GGCUUGGAAGGAUUAGAAGTT against Ppp1r42,inactive: 0.901
10,GCUAAUCUUUCCUCUGCCCTT against Mff,inactive: -0.993
11,CCAUAGUAUUGAUGUCUGCTT against Nat8f2,inactive: 0.363
12,GGAUGGUGCAUACCUCUUCTT against Axin2,inactive: 1.08
13,GGAUAAAUCCUCAGAUGAUTT against Lrrc46,inactive: 0.766
14,CCUUCUAAAUGACCUGUUUTT against Fam3a,inactive: -1.21
15,GGUUAUAGGAAGGAAUUGCTT against Krt90,active: 2.58
16,CCUAUGAACCCUAGGGUACTT against Ccdc142,inactive: 0.705
17,GGUGCUGGAGAACAUUCUATT against Angpt2,inactive: 0.67
18,GGACCUUGGUAAUAGAAAGTT against Pdzd4,inactive: -0.0636
19,GGCGAAAAAGAACUUCUCCTT against Prrx1,active: -2.17
20,GGUUCAUGAAUGACAAACUTT against Sult4a1,inactive: 0.383
21,CCUAGUGUUAGAACAGAUCTT against Zmynd10,inactive: 0.363
22,GGAUCAUCAACCAUCUAAUTT against Srsf7,inactive: -1.11

# Nothing new here: an excerpt of the list.
row,Sequence,z-score
20,GGUUCAUGAAUGACAAACUTT against Sult4a1,inactive: 0.383
21,CCUAGUGUUAGAACAGAUCTT against Zmynd10,inactive: 0.363
22,GGAUCAUCAACCAUCUAAUTT against Srsf7,inactive: -1.11

# More records.

row,Sequence,z-score
1,GGGCUACACAAAAUUUUAATT against Cxcl11,inactive: 1.2
2,GGAAACACACUGGUUCUGATT against Il6ra,inactive: -0.0608
3,GGAAAGAAAUGCUGAAAAUTT against Atp2a2,inactive: -0.199
4,GCUAUUCAAUCUGAGGAAATT against Olfr1278,inactive: 0.246
5,CCUGUAGCUAGCUUCUAGGTT against Adamts10,inactive: -0.46
6,GGAUAUUGCCAGUAAUUAATT against Kif21a,inactive: 0.212
7,CCACCUCCAUCGAUGUUAUTT against Rassf9,inactive: -1.84
8,GGAAAAAAACUUGCUGGAUTT against Ppp3ca,inactive: -0.681
9,CCUCUUGAGUCGAGAUAUGTT against Wdr60,inactive: -0.32
10,GGGAUUGGGUUCCAAUCUUTT against Slc35b1,inactive: -0.187
11,GGAGAAGCAGCAACAGCUATT against Asgr2,inactive: -0.64
12,GGCUGUGAAGCUUACCAGCTT against Tm9sf4,inactive: 0.123
13,CCGCUCACGUGAAAAAGUUTT against Tars2,inactive: 0.327
14,GGUCAUAGAUAACACGCUCTT against Cpne5,inactive: 0.312
15,GGUAUUUUUCAACAUUCUGTT against Slc9a7,inactive: 0.36
16,GCGCAACAGGAUUCAGCUATT against Csmd1,inactive: -1.09
17,GCCUUCCAGUCAGUGAAAUTT against Foxn1,inactive: -0.174
18,GUCUUCAUACUCCAAUGUATT against Olfr878,inactive: 1.05
19,GGAUUCAUGUUCCAUAUGUTT against Ubox5,inactive: -0.169
